In paper doi:10.1101/2021.01.31.429078:
Results are given in words; binding and its absence hold for the method and conditions named. Binding seen in cells or lysates may run through a third protein. For some assays here: Where a sequence is shown, tags or fusion partners need not be part of it.

Sequences of proteins named here, by UniProt entry; tags and fusion partners are left off.
UniProt Q13309: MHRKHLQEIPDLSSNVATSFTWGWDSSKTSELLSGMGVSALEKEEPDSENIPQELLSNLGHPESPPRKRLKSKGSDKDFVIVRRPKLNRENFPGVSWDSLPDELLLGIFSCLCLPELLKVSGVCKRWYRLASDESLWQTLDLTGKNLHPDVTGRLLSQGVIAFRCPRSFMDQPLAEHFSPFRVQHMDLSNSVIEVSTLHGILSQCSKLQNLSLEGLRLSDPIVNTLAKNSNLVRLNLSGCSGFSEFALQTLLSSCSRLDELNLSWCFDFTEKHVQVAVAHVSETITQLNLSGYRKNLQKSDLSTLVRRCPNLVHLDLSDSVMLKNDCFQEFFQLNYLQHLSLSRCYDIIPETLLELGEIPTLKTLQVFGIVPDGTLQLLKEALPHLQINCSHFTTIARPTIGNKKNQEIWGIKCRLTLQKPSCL

Experiments:
Flag-tagged FBXO3 = biological target: T1, Flag-tagged FBXO3 (UniProt Q9UK99); assay: co-IP
T1 sequence: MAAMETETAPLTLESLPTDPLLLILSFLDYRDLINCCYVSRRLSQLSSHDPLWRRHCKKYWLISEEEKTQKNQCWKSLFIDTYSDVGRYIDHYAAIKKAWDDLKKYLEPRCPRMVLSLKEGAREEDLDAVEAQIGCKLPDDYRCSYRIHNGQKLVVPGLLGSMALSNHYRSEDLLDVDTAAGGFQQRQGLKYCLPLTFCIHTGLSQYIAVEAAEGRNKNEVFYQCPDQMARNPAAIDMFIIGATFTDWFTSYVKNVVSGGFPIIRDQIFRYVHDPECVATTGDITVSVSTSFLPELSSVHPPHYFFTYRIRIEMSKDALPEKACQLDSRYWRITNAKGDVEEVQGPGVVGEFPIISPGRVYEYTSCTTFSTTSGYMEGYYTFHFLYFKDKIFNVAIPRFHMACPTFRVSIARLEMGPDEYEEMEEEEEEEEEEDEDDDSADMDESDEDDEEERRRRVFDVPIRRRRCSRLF

Flag-tagged SKP2 = Flag-tagged SKP2 (UniProt Q13309); assay: co-IP

binding (Flag-tagged FBXO3): no binding
binding (Flag-tagged SKP2): no binding
B1: MST2 (endogenous, HEK293T cells) (protein, UniProt Q13188-1 1-491)
chain: MEQPPAPKSKLKKLSEDSLTKQPEEVFDVLEKLGEGSYGSVFKAIHKESGQVVAIKQVPVESDLQEIIKEISIMQQCDSPYVVKYYGSYFKNTDLWIVMEYCGAGSVSDIIRLRNKTLIEDEIATILKSTLKGLEYLHFMRKIHRDIKAGNILLNTEGHAKLADFGVAGQLTDTMAKRNTVIGTPFWMAPEVIQEIGYNCVADIWSLGITSIEMAEGKPPYADIHPMRAIFMIPTNPPPTFRKPELWSDDFTDFVKKCLVKNPEQRATATQLLQHPFIKNAKPVSILRDLITEAMEIKAKRHEEQQRELEEEEENSDEDELDSHTMVKTSVESVGTMRATSTMSEGAQTMIEHNSTMLESDLGTMVINSEDEEEEDGTMKRNATSPQVQRPSFMDYFDKQDFKNKSHENCNQNMHEPFPMSKNVFPDNWKVPQDGDFDFLKNLSLEELQMRLKALDPMMEREIEELRQRYTAKRQPILDAMDAKKRRQQNF
